For at least one compound, name, drawing or mass did not settle the structure.
Experiments:
[1] = tested on: H23 human lung cancer cells; assay: FGFR1 resistance mechanism in H23 cells; format: cell-based; conditions: 6 days of treatment
[2] = tested on: KL LJE1 cells; assay: Western blot and qRT-PCR of FGFR1, NKX2-1 and ERK phosphorylation in drug-treated KL LJE1 cells; format: cell-based, mouse; conditions: Western blot; 13 days; 10 nM trametinib, 1 uM entinostat
Method: (§1) All cell lines were incubated at 37° C. and were maintained in an atmosphere containing 5% CO2. Cells were tested for Mycoplasma (Lonza) using manufacturer's conditions and were deemed negative. Cells were grown in Dulbecco's modified Eagles medium (DMEM) plus 10% fetal bovine serum (Gibco) and were continuously maintained under antibiotic selection for stable cell lines. Proliferation assays were performed by plating 2×10^3 cells per well of a 6-well plate, and cells were counted 5 days post-plating. Drug treatments were carried out using the following doses: entinostat 1 uM or 2 uM, RGFP966 10uM, TSA 0.5 uM, BRD3308 5 uM, trametinib 5 nM, 10 nM, and 25 nM, and MRTX1133 10 nM, 25 nM, and 50 nM, as indicated for the indicated treatment lengths. Media was changed and fresh drug added every 2 days.
mRNA was prepared using the Quick-RNA Miniprep kit (Zymo Research), including DNase treatment. cDNA was synthesized from 2 μg of RNA using SuperScript III (Life Technologies), and qPCR was carried out with diluted cDNA, appropriate primers, and SYBR Green PCR master mix (ThermoFisher Scientific) using a C1000 Thermal Cycler (BioRad). Relative mRNA levels were calculated using the delta Ct method, using Tbp as an internal control. […]

[3] = tested on: KL LJE1 cells; assay: RNA-seq of drug-treated KL LJE1 cells (TIER genes); format: cell-based, mouse
Method: All cell lines were incubated at 37° C. and were maintained in an atmosphere containing 5% CO2. Cells were tested for Mycoplasma (Lonza) using manufacturer's conditions and were deemed negative. Cells were grown in Dulbecco's modified Eagles medium (DMEM) plus 10% fetal bovine serum (Gibco) and were continuously maintained under antibiotic selection for stable cell lines. Proliferation assays were performed by plating 2×10^3 cells per well of a 6-well plate, and cells were counted 5 days post-plating. […]
mRNA was collected from cells harvested within 2 passages post-thaw. mRNA was isolated using the Quick-RNA Miniprep kit (Zymo Research), including DNase treatment. RNA integrity (RIN) numbers were determined using the Agilent TapeStation prior to library preparation. mRNA-seq libraries were prepared using the TruSeq RNA library preparation kit (version 2), according to the manufacturer's instructions (Illumina). Libraries were quantified, pooled, and sequenced by single-end 50 base pairs using the Illumina HiSeq 2500 platform at the Salk Next-Generation Sequencing Core. […]
Sequenced reads were quality-tested using the online FASTQC tool (bioinformatics.babraham.ac.uk/projects/fastqc) and aligned to the mouse mm10 genome using the STAR aligner version 2.4.0k (Ref. 81; incorporated by reference in its entirety). […]

[4] = tested on: KL NSCLC GEMM; assay: In vivo entinostat and trametinib treatment, 42 days, tumor burden; parameters: species or system mouse; conditions: endpoint after 42 days; entinostat 10 mg/kg, trametinib 1 mg/kg, oral gavage
Method: Bioluminescent imaging was performed biweekly using an IVIS Spectrum (Caliper Life Sciences) using Living Image software (Perkin Elmer). Mice were injected intraperitoneally with 150 mg/kg D-luciferin (Caliper Life Sciences), anesthetized with isoflurane and imaged both ventrally and dorsally 10 minutes post luciferin injection. The total lung photon flux for each animal is calculated by the combination of ventral and dorsal photon flux calculated within a region of interest (ROI) encompassing the thorax.
Mice were intratracheally intubated with Lentivirus expressing Cre recombinase to initiate tumorigenesis and imaged […] starting 4 weeks post-Cre. Treatment was initiated at day 34 post-Cre (FIG. 5). In vivo treatment doses were selected based on publications (76-79). […]
Total lung tumor burden was quantitated from H&E sections using Inform v2.1 image analysis software (Cambridge Research and Instrumentation) in a non-biased manner. […] The quantitation data from this analysis was then used to calculate the percentage of tumor area as normalized to total lung area (tumor area+normal lung area).
Quantitation of each individual tumor was measured from H&E sections using morphometric analysis in Panoramic viewer software (Perkin Elmer), which calculates the size of each identified tumor by area in squared microns. […]

[5] = tested on: KL LJE1 cells; assay: qRT-PCR of chemokine (HRCG) gene expression in KL LJE1 cells; format: cell-based, mouse; conditions: 5 days, MRTX1133 10, 25, or 50 nM, trametinib 5, 10, or 25 nM
Method: as §1
mRNA was prepared using the Quick-RNA Miniprep kit (Zymo Research), including DNase treatment. cDNA was synthesized from 2 μg of RNA using SuperScript III (Life Technologies), and qPCR was carried out with diluted cDNA, appropriate primers, and SYBR Green PCR master mix (ThermoFisher Scientific) using a C1000 Thermal Cycler (BioRad). Relative mRNA levels were calculated using the delta Ct method, using Tbp as an internal control.

[6] = tested on: KL lung tumors; assay: 6-week in vivo entinostat and trametinib treatment, flow cytometry immune profiling; parameters: species or system mouse; conditions: 6 weeks
Method: The 6-week duration study was carried out according to the same experimental design except for the following: To ensure an extended treatment duration, treatment was initiated after tumor burden was detected by BLI in >30% of mice in the study. Entinostat was administered at a dose of 10 mg/kg to assess systemic drug impact at a dose corresponding to potent tumor growth control. Because mice were gavaged twice daily for an extended duration, an additional drug holiday was built into the dosing schedule starting after 3 weeks of treatment; mice were administered drug using the following schedule: 4 days on, 1 day off, 1 day on, and 1 day off (imaging day).
Tumor digestion and cell isolation: Lungs were removed from the chest, washed with PBS, dried on paper towels and then tumor nodules were excised from adjacent tissue and both adjacent tissue and nodules were weighed. Nodules or adjacent tissue was minced into small pieces and suspended in digestion media consisting of RPMI 1640 with 2% FBS, 0.5 ug/mL of DNase I and 1 unit/mL collagenase Type I (Sigma-Aldrich Cat #0000137295) and placed in an incubator at 37° C. for 45 minutes, shaking once during digestion. Lungs were then mashed against 70 μM cell strainers (VWR Cat #10199-657) to filter and then red blood cells were lysed using ACK lysis buffer, mixed with RPMI 1640 containing 10% FBS and 1% pen-strep, centrifuged at 400g for 5 minutes at 4° C. to obtain a single-cell suspension.
Flow Cytometry, cell sorting, and antibodies: Prior to staining, single cell suspensions were incubated on ice for 10 minutes with Fc receptor-blocking anti-CD16/32 (BioLegend Cat #101301). Cell suspensions were first stained for 5 minutes at room temperature with LIVE/DEAD® Fixable Red Dead Cell Stain Kit (ThermoFisher Cat #L23102). Surface proteins were then stained for 30 minutes at 4° C. in FACS buffer (PBS containing 2% FBS and 0.1% NaN3 (MP Bio Cat #2102891-CF)). […]

[7] = tested on: human LKB1 mutant lung cancer cells; assay: FGFR1 resistance mechanism in human LKB1 mutant lung cancer cells; format: cell-based; conditions: 13 days of treatment

Compound	FGFR1 resistance mechanism [1]	FGFR1 protein [2]	NKX2-1 protein [2]	Avpil expression [3]	tumor burden quantitated from H&E-stained sections (tumor area as percentage of total lung area) [4]	HDAC3 KO-dependent induction of immunosuppressive HRCGs (Cxc15, Cxc1, Cxc12, Cxc13) [5]	HDAC3 KO-dependent induction of immunosurveillance-related HRCGs (Cc15, Cxc110) [5]	CD8+ T-cell cytokine production capacity ([6]; lung tumors, ex-vivo PMA and Ionomycin stimulation)	gMDSCs in lung tumors ([6]; percentage of total CD45+ cells)	percentage of transitory (TrnsEx) and terminally exhausted (TerEx) CD8+PD-1+ T-cells ([6]; tumors)	FGFR1 resistance mechanism [7]
C=CC(=O)N1CCN(c2nc(=O)n(-c3c(C)ccnc3C(C)C)c3nc(-c4c(O)cccc4F)c(F)cc23)[C@@H](C)C1 [AMG510, Sotorasib]	induces the FGFR1 resistance mechanism	–	–	–	–	–	–	–	–	–	–
CC(=O)Nc1cccc(-n2c(=O)n(C3CC3)c(=O)c3c(Nc4ccc(I)cc4F)n(C)c(=O)c(C)c32)c1 [trametinib]	–	strongly induced	Trametinib Induced	induced by trametinib resistance	neither entinostat nor trametinib alone impacted tumor burden	reversed the induction of HRCG expression	but not for immunosurveillance-related HRCGs	increased cytokine production capacity	increased gMDSCs	reduced to similar degrees	induces the FGFR1 resistance mechanism

Source: patent US20240398814A1, “KRAS INHIBITOR AND HDAC INHIBITOR COMBINATION FOR THE TREATMENT OF CANCER” (Northwestern University, priority 2023, published 2024)
